The target in assay [1] is T1, cyno CCR8 (cynomolgus, UniProt G7NYJ2 1-355).
T1 construct: whole, on cells; also called cynomolgus CCR8 protein
In words: FACS, CHO-K1 cyno CCR8 cells, chimeric mAb.

Protein sequences, listed by entry. Tags and fused reporters are not part of them. Lines headed by an entry give the natural chain unless they say otherwise; changes in a name come on top. Chains listed by the source or under a name are the forms on record and can include a tag or linker.
cyno CCR8 (G7NYJ2, form named): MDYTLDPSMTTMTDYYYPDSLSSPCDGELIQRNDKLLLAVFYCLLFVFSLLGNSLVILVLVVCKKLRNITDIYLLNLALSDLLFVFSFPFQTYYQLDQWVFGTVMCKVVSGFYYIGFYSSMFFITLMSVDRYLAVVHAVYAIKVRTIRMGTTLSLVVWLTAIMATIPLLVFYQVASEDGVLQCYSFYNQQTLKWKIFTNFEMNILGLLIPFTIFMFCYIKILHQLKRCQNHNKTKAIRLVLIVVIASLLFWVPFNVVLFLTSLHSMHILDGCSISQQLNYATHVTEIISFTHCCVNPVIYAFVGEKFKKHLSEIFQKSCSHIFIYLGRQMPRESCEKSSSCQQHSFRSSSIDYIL

In assay [2] the target is T1, cyno CCR8. In words: FACS (MFI-PE) on CHO-K1 cyno CCR8 cells, bars at five doses [cont'd) C].
For assay [3], the target named is T1, cyno CCR8. In words: FACS (MFI-PE) on CHO-K1 cyno CCR8 cells.
The target in assay [4] is T1, cyno CCR8. The experiment in a line: FACS, CHO-K1 cyno CCR8 cells.
For assay [5], the target named is T1, cyno CCR8. The experiment in a line: binding to cyno CCR8, FIG. 9B; method not described in Example 11.
For assay [6], the target named is T1, cyno CCR8. In words: FACS (MFI-PE) on CHO-K1 cyno CCR8 cells, bars at five doses [cont'd) D].

Results are given in words; binding and its absence hold for the method and conditions named. Some results given as binding are weak or reduced against the parent protein; the word gives no strength.

B1: 195H8D10 (antibody, V domains shown)
VH: EVQLVGSGGGLVQPKGSLKLSCAASGFNFNTYVMNWVRQAPGKGLEWVARIRTKSNNYATYYADSVKDRFTISRDDSESKLYLQMNNLKTEDTAMYYCVSGTITRLGGGLDYWGQGTSVTVSS
VL: DIVMTQAAPSVPVTPGESVSISCRSSKRLLHSNGNTYLYWFLQRPGQSPQLLIYRMSNLASGVPDRFSGSGSGTAFTLRISRVEAEDVGVYYCMQHLEYPFTFGGGTKLEIK
notes: tested as chimeric mAb; also called 195H8D10-C
Turning to B1, the binding entry in assay [1] and in assay [2] was “binds” each time.

B2: 163H9D5 (antibody, V domains shown)
VH: EVQLVESGGGLVQPKGSLKLSCAASGFSFNTYAMNWVRQAPGKGLKWVARIRTKSNNYATHYADSVKDRFTLSRDDSESMLYLQMNNLKTEDTAMYYCVGGGYGSSASNAMAYWGQGTSVTVSS
VL: DIVMTQAAPSVPVTPGESVSISCRSSKSLLHSNGNTYLYWFLQRPGQSPQLLIFRMSNLASGVPDRFSGSGSGTAFTLRISRVEAEDVGVYYCMQHLEYPFTFGSGTKLEIK
notes: tested as chimeric mAb
On to B2, for which the results for the binding result in assay [3] and in assay [4] were “no binding (tested: 100 nM)” and “no binding (tested: 100 nM (highest concentration tested))”, respectively.

B3: 200C9B9-C2 (antibody, V domains shown)
VH: EVQLVESGGGLVQPKGSLKLSCAASGFSFNTYVMNWVRQAPGKGLNWVARIRTKSNNYATFYVDSVKDRFTISRDDSENMLYLQMNNLKIEDTAIYYCVSGTITRLGAGLDYWGQGTSVTVSS
VL: DIVMTQAAPSVPVTPGESVSISCRSSKSLLHSNANTYLYWFLQRPGQSPQLLIYRMSNLASGVPDRFSGSGSGTAFTLRISRVEAEDVGVYYCMQHLEYPFTFGGGTKLEIK
notes: also called 200C9B9 VH with 200C9B9 VL NG-NA
For B3, in assay [5], the binding result is listed as “binds”.

B4: 195H8D10-C2 (antibody, V domains shown)
VH: EVQLVGSGGGLVQPKGSLKLSCAASGFNFNTYVMNWVRQAPGKGLEWVARIRTKSNNYATYYADSVKDRFTISRDDSESKLYLQMNNLKTEDTAMYYCVSGTITRLGGGLDYWGQGTSVTVSS
VL: DIVMTQAAPSVPVTPGESVSISCRSSKRLLHSNANTYLYWFLQRPGQSPQLLIYRMSNLASGVPDRFSGSGSGTAFTLRISRVEAEDVGVYYCMQHLEYPFTFGGGTKLEIK
notes: also called 195H8D10 VH with 195H8D10 VL NG-NA
For the molecule B4, in assay [5], the binding entry is given as “binds”.

B5: 200C9B9-C1 (antibody, V domains shown)
VH: EVQLVESGGGLVQPKGSLKLSCAASGFSFNTYVMNWVRQAPGKGLNWVARIRTKSNNYATFYVDSVKDRFTISRDDSENMLYLQMNNLKIEDTAIYYCVSGTITRLGAGLDYWGQGTSVTVSS
VL: DIVMTQAAPSVPVTPGESVSISCRSSKSLLHSQGNTYLYWFLQRPGQSPQLLIYRMSNLASGVPDRFSGSGSGTAFTLRISRVEAEDVGVYYCMQHLEYPFTFGGGTKLEIK
notes: also called 200C9B9 VH with 200C9B9 VL NG-QG
In the case of B5, the binding entry in assay [3] is listed as “binds”.

B6: 200C9B9 (antibody, V domains shown)
VH: EVQLVESGGGLVQPKGSLKLSCAASGFSFNTYVMNWVRQAPGKGLNWVARIRTKSNNYATFYVDSVKDRFTISRDDSENMLYLQMNNLKIEDTAIYYCVSGTITRLGAGLDYWGQGTSVTVSS
VL: DIVMTQAAPSVPVTPGESVSISCRSSKSLLHSNGNTYLYWFLQRPGQSPQLLIYRMSNLASGVPDRFSGSGSGTAFTLRISRVEAEDVGVYYCMQHLEYPFTFGGGTKLEIK
notes: tested as chimeric mAb; also called 200C9B9-C
Turning to B6, the binding entry in assay [1] and in assay [6] was “binds” throughout.

B7: 101D5G10G4 (antibody, V domains shown)
VH: DLQLKESGPGLVKPSQSLSLTCSVTGYSITSGYYWNWIRQFPGNKLEWMGYISYDGNNNYNPSLKNRISITRDTSKNQFFLNLNSVTTEDTATYYCSRATGLRKAWFAYWGQGTLVTVSA
VL: DIQMTQSSSYLSVSLGGRVTITCKASDHINNWLAWYQQKPGNAPRLLISDTTSLGTGVPSRFRGSGSGKDYTLSITSLQTEDVATYFCQQYWSYPYTFGGGTKLEIR
notes: tested as chimeric mAb
For B7, the binding entry in assay [1] is given as “binds”.

B8: 115C5E3B8 (antibody, V domains shown)
VH: DVQLQESGPGLVKPSQSLSLTCSVTGYSITSGYYWNWIRQFPGNKLEWMGYISYDGYNDYNPSLKNRISITRDTSKNQFFLKLNSVTTEDTATYYCARETGLRKAWFAYWGQGTLVTVSG
VL: DIQMTQSSSYLSVSLGGRVTITCKASDHINNRLAWYQQKPGNAPRLLISDTSSLETGVPSRFSGSGSGKDYTLRITSLQTEDVATYYCQQYWGTPYTFGGGTKLEIK
notes: tested as chimeric mAb
Consider B8, for which the binding entry in assay [1] is listed as “binds”.
